No constants are given. Whether binding was seen depends on the method and setting. In cells and extracts the contact can be indirect. Some entries that bind do so weakly or less than the wild type. Tags and fused reporters may be left off the sequences shown.
Molecular target: BRCA1-associated protein 1 (BAP1), endogenous nuclear (human (endogenous in PLC/PRF/5)) (UniProt Q92560)
Experiment: co-IP; anti-BAP1 antibody on endogenous nuclear proteins of PLC/PRF/5 cells; blot for OGT

Amino acid sequences for entries named in this document (tags omitted).
UniProt Q92560: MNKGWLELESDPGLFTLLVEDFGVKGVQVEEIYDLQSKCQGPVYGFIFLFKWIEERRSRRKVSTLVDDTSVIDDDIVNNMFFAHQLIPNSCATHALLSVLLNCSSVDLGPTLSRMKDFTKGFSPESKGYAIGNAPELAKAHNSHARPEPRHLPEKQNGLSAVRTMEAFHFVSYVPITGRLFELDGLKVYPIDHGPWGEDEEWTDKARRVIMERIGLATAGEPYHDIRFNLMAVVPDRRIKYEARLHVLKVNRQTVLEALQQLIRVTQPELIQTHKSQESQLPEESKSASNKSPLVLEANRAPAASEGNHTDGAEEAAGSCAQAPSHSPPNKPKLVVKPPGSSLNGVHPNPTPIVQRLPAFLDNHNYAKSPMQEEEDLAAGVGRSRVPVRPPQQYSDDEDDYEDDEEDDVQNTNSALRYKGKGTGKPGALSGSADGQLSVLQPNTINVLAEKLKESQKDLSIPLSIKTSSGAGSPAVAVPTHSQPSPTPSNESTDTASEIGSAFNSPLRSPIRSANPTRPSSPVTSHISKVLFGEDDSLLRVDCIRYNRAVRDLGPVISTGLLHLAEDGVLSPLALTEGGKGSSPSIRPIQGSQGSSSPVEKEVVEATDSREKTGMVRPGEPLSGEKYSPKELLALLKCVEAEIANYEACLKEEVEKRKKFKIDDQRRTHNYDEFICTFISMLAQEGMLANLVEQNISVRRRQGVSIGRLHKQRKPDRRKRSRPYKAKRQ

B1: O-linked N-acetylglucosamine (GlcNAc) transferase (OGT) (enzyme, UniProt O15294 1-1046)
chain: MASSVGNVADSTEPTKRMLSFQGLAELAHREYQAGDFEAAERHCMQLWRQEPDNTGVLLLLSSIHFQCRRLDRSAHFSTLAIKQNPLLAEAYSNLGNVYKERGQLQEAIEHYRHALRLKPDFIDGYINLAAALVAAGDMEGAVQAYVSALQYNPDLYCVRSDLGNLLKALGRLEEAKACYLKAIETQPNFAVAWSNLGCVFNAQGEIWLAIHHFEKAVTLDPNFLDAYINLGNVLKEARIFDRAVAAYLRALSLSPNHAVVHGNLACVYYEQGLIDLAIDTYRRAIELQPHFPDAYCNLANALKEKGSVAEAEDCYNTALRLCPTHADSLNNLANIKREQGNIEEAVRLYRKALEVFPEFAAAHSNLASVLQQQGKLQEALMHYKEAIRISPTFADAYSNMGNTLKEMQDVQGALQCYTRAIQINPAFADAHSNLASIHKDSGNIPEAIASYRTALKLKPDFPDAYCNLAHCLQIVCDWTDYDERMKKLVSIVADQLEKNRLPSVHPHHSMLYPLSHGFRKAIAERHGNLCLDKINVLHKPPYEHPKDLKLSDGRLRVGYVSSDFGNHPTSHLMQSIPGMHNPDKFEVFCYALSPDDGTNFRVKVMAEANHFIDLSQIPCNGKAADRIHQDGIHILVNMNGYTKGARNELFALRPAPIQAMWLGYPGTSGALFMDYIITDQETSPAEVAEQYSEKLAYMPHTFFIGDHANMFPHLKKKAVIDFKSNGHIYDNRIVLNGIDLKAFLDSLPDVKIVKMKCPDGGDNADSSNTALNMPVIPMNTIAEAVIEMINRGQIQITINGFSISNGLATTQINNKAATGEEVPRTIIVTTRSQYGLPEDAIVYCNFNQLYKIDPSTLQMWANILKRVPNSVLWLLRFPAVGEPNIQQYAQNMGLPQNRIIFSPVAPKEEHVRRGQLADVCLDTPLCNGHTTGMDVLWAGTPMVTMPGETLASRVAASQLTCLGCLELIAKNRQEYEDIAVKLGTDLEYLKKVRGKVWKQRISSPLFNTKQYTMELERLYLQMWEHYAAGNKPDHMIKPVEVTESA
binding: binds

— paper PMC11845619
